Among the data in paper PMC10031136 are binding values, retold here.

The chains behind the UniProt entries cited, without tags or fusion partners. Residues count along the entry.
UniProt P10747, residues 19-220: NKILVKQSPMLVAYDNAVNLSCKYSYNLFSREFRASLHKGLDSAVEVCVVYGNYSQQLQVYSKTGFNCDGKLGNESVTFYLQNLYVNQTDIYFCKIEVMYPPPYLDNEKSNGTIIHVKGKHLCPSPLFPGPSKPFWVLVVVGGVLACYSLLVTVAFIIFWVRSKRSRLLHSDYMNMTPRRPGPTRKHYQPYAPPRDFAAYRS

No constants are given. Whether binding was seen depends on the method and setting. Binding seen in cells or lysates may run through a third protein. Sequences can lack the tags named with a protein.

The target in the assay is CD28 costimulatory receptor (human (endogenous in Jurkat)) (UniProt P10747). The assay is described as follows: co-IP; anti-CD28 immunoprecipitation from lysates of Jurkat E6.1 T cells transfected with Xpress-tagged PKCθ vectors, stimulated for 5 min with anti-CD3 plus anti-CD28 mAbs; immunoblot. Background: Immunoblotting shows a protein as a band on a membrane.

B1: Xpress-tagged PKCθ T/A (A335P) (enzyme, UniProt Q04759 1-706)
chain: MSPFLRIGLSNFDCGSCQSCQGEAVNPYCAVLVKEYVESENGQMYIQKKPTMYPPWDSTFDAHINKGRVMQIIVKGKNVDLISETTVELYSLAERCRKNNGKTEIWLELKPQGRMLMNARYFLEMSDTKDMNEFETEGFFALHQRRGAIKQAKVHHVKCHEFTATFFPQPTFCSVCHEFVWGLNKQGYQCRQCNAAIHKKCIDKVIAKCTGSAINSRETMFHKERFKIDMPHRFKVYNYKSPTFCEHCGTLLWGLARQGLKCDACGMNVHHRCQTKVANLCGINQKLMAEALAMIESTQQARCLRDTEQIFREGPVEIGLPCSIKNEARPPCLPAPGKREPQGISWESPLDEVDKMCHLPEPELNKERPSLQIKLKIEDFILHKMLGKGSFGKVFLAEFKKTNQFFAIKALKKDVVLMDDDVECTMVEKRVLSLAWEHPFLTHMFCTFQTKENLFFVMEYLNGGDLMYHIQSCHKFDLSRATFYAAEIILGLQFLHSKGIVYRDLKLDNILLDKDGHIKIADFGMCKENMLGDAKTNTFCGTPDYIAPEILLGQKYNHSVDWWSFGVLLYEMLIGQSPFHGQDEEELFHSIRMDNPFYPRWLEKEAKDLLVKLFVREPEKRLGVRGDIRQHPLFREINWEELERKEIDPPFRPKVKSPFDCSNFDKEFLNEKPRLSFADRALINSMDQNMFRNFSFMNPGMERLIS
For the molecule B1, the binding result is on record as “no binding”.
